Assay results: patent US20110117165A1, “IMPLANTABLE BONE GRAFT MATERIALS” (AFFINERGY, INC., priority 2009, published 2011)
Results are given in words; binding and its absence hold for the method and conditions named. Some entries that bind do so weakly or less than the wild type.

Sequences of proteins named here, by UniProt entry; tags and fusion partners are left off. Residues count along the entry.
UniProt P22003, residues 317-454: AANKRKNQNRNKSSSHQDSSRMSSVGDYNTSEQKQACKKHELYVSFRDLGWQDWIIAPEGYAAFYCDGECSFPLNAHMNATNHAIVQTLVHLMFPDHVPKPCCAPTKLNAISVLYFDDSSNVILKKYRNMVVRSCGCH
UniProt P22004, residues 382-513: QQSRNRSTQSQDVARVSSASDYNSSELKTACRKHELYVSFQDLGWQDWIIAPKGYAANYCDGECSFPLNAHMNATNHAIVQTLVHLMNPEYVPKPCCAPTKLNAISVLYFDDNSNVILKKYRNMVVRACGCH
UniProt P18075, residues 293-431: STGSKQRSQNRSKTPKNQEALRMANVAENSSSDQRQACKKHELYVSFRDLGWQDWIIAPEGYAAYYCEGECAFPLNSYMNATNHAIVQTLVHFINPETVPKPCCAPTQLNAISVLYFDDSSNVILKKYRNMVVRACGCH
UniProt P12643, residues 283-396: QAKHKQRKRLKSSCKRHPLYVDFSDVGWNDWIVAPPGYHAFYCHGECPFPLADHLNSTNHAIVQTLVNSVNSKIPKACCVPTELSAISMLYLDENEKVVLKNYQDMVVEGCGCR

T1: GDF-7 (UniProt Q7Z4P5)
T1 sequence (looked up): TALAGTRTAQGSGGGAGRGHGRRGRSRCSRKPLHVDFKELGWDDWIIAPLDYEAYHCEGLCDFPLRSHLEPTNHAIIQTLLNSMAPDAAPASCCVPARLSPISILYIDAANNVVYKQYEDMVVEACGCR


Legend:
[1] = molecular target: BMP-5 (UniProt P22003); experiment: ELISA, biotinylated peptide on streptavidin plate, BMP at 100 and 10 nM
[2] = molecular target: BMP-6 (UniProt P22004); experiment: as above
[3] = molecular target: BMP-7 (UniProt P18075); experiment: ELISA, biotinylated peptide on streptavidin plate, BMP in solution
[4] = molecular target: T2, BMP-2 (UniProt P12643 283-396); experiment: ELISA, biotinylated peptide on streptavidin plate, BMP-2 at 200, 20, 2 nM
T2 construct: also called bone morphogenic protein 2

[5] = molecular target: T1, GDF-7; experiment: phage display selection on immobilized GDF-7

Binder | binding [1] | binding [2] | binding [3] | binding [4] | binding [5]
GGGAWEAFSSLSGSRV (biotinylated for the streptavidin plate assay of FIG. 14 (position not given)) [BMP binding peptide SEQ ID NO: 1] | binds | binds | binds | binds | 
GGALGFPLKGEVVEGWA (biotinylated for the streptavidin plate assay of FIG. 14 (position not given)) [BMP binding peptide SEQ ID NO: 2] | binds | binds | binds | binds | 
SSGPREIWDSLVGVVNPGWSR (biotinylated for the streptavidin plate assay of FIG. 14C (position not given)) [BMP binding peptide SEQ ID NO: 5] | binds | binds |  |  | binds

Now from value to binder:

binding [1] | binding [2] | binding [3] | binding [4] | binding [5] | Binder
binds | binds |  |  | binds | SSVAEWALRSWEGMRVGEASR (biotinylated for the streptavidin plate assay of FIG. 14C (position not given)) [BMP binding peptide SEQ ID NO: 7]
binds | binds |  |  | binds | SSGGVGGWALFETLRGKEVSR (biotinylated for the streptavidin plate assay of FIG. 14C (position not given)) [BMP binding peptide SEQ ID NO: 6]
